The target in the assay is T1, PINK1::Myc (genomically tagged PINK1) (Drosophila) (UniProt Q0KHV6).
T1 sequence: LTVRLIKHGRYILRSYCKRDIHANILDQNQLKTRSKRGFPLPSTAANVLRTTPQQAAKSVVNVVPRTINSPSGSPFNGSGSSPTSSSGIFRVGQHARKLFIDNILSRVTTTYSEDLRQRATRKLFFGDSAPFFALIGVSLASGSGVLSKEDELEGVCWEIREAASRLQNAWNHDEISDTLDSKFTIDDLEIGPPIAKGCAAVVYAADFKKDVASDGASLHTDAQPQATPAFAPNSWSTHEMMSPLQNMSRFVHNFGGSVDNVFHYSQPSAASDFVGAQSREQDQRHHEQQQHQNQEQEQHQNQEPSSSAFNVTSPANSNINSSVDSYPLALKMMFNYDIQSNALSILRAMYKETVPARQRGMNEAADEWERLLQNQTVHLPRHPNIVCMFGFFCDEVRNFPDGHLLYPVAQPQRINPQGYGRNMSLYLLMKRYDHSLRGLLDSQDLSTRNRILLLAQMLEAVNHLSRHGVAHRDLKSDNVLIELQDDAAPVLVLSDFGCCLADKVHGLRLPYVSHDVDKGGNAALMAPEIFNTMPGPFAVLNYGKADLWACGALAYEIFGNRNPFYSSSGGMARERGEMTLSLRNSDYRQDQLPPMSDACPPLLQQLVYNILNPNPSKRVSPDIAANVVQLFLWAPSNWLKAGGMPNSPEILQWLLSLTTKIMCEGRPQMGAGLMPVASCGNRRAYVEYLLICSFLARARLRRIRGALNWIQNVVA
The assay is described as follows: co-IP; lysate of 25-30 adult flies (w;PINK1::Myc/+;Actin>Gal4/UAS-ben::V5) in co-IP buffer (40mM HEPES pH 7.5, 120mM NaCl, 1mM EDTA, 0.3% CHAPS, phosphatase inhibitors); PINK1::Myc held on Myc beads 4 hrs at 4°C, washed thrice, eluted with Myc peptide; western blot for Ben::V5.

These are yes or no findings as the source states them, for the method shown. In cells and extracts the contact can be indirect. Some binding calls cover weakened binding; strength is not graded here. Tags and fused reporters may be left off the sequences shown.

B1: Bendless, C-terminal V5-tagged (Ben::V5) (enzyme, UniProt P35128 1-151)
chain: MSSLPRRIIKETQRLMQEPVPGINAIPDENNARYFHVIVTGPNDSPFEGGVFKLELFLPEDYPMSAPKVRFITKIYHPNIDRLGRICLDVLKDKWSPALQIRTILLSIQALLSAPNPDDPLANDVAELWKVNEAEAIRNAREWTQKYAVED
Regarding B1, the binding result is “binds”.

For the origin of these results see PMC10162545.
